Data source: PubChem BioAssay AID686943 (Drosophila RNAi Screening Center, 2013)
The screen tested about 23,000 reagents; below is a random part of those that have a named target and a result. 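Extra replicates exist only for a retested subset of genes; insulin dose and duration not given; both raised and lowered dpERK matter.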 A plus sign joins genes that one reagent is predicted to hit. Not all columns of the deposit are shown. Not given: the amount of reagent, the time to read-out.

Aim: 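Search across the genome for regulators of signalling from receptor tyrosine kinase to ERK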 (primary screen)
Cell system: Drosophila S2R+ haemocyte-like cells expressing YFP-tagged ERK (Rolled)
Knock-down reagent: long dsRNA against Drosophila genes
Challenge: insulin stimulation versus unstimulated cells; dose and duration not given
Detection: 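Antibody staining for doubly phosphorylated ERK divided by ERK-YFP signal, as plate z-scores, in insulin-treated and untreated cells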
Direction: replicate 1, z-score of dpERK with insulin and replicate 2, z-score of dpERK with insulin: higher = more active ERK per ERK-YFP after insulin

Against CG6659 [DRSC20003], the values are replicate 1, z-score of dpERK with insulin 0.27; replicate 2, z-score of dpERK with insulin 0.46.
Depletion of CG11585 [DRSC19410] gave: replicate 1, z-score of dpERK with insulin 0.12; replicate 2, z-score of dpERK with insulin 0.58.
For Rpp14b (Ribonuclease P/MRP subunit p14 b) [DRSC15063] the deposit lists replicate 1, z-score of dpERK with insulin 0.22; replicate 2, z-score of dpERK with insulin 0.
For Unr (Upstream of N-ras) [DRSC10761], the entry reads replicate 1, z-score of dpERK with insulin 0.07; replicate 2, z-score of dpERK with insulin 0.03.
Against Unr (Upstream of N-ras) [DRSC22959], the values are replicate 1, z-score of dpERK with insulin -0.22; replicate 2, z-score of dpERK with insulin 0.56.
Knock-down of Cpr57A + Obp57d [DRSC06708] gave: replicate 1, z-score of dpERK with insulin -0.4; replicate 2, z-score of dpERK with insulin 0.23.
Knock-down of Cpr57A + Obp57d [DRSC22719] resulted in: replicate 1, z-score of dpERK with insulin 0.9; replicate 2, z-score of dpERK with insulin 0.3.
For tgo (tango) [DRSC17077] the deposit lists replicate 1, z-score of dpERK with insulin 1.88; replicate 2, z-score of dpERK with insulin 0.88.
Silencing of Setd3 (SET domain containing 3) [DRSC17840] resulted in: replicate 1, z-score of dpERK with insulin -0.37; replicate 2, z-score of dpERK with insulin -1.27.
Against Setd3 (SET domain containing 3) [DRSC18269], the values are replicate 1, z-score of dpERK with insulin -0.08; replicate 2, z-score of dpERK with insulin -0.15.
For CG3119 [DRSC00569], the values are replicate 1, z-score of dpERK with insulin -0.26; replicate 2, z-score of dpERK with insulin -0.51.
With knock-down of CG2006 + Spase12 [DRSC14316], the record shows replicate 1, z-score of dpERK with insulin -0.37; replicate 2, z-score of dpERK with insulin 0.
Silencing of CG4000 [DRSC15535] resulted in: replicate 1, z-score of dpERK with insulin -0.06; replicate 2, z-score of dpERK with insulin -0.02.
After knock-down of CG4000 [DRSC21547], the record shows replicate 1, z-score of dpERK with insulin 0.46; replicate 2, z-score of dpERK with insulin -0.16.

Laid out differently: 6 of the entries above.
target gene,amplicon,"replicate 1, z-score of dpERK with insulin","replicate 2, z-score of dpERK with insulin"
CG6659,DRSC20003,0.27,0.46
CG11585,DRSC19410,0.12,0.58
Rpp14b (Ribonuclease P/MRP subunit p14 b),DRSC15063,0.22,0
Unr (Upstream of N-ras),DRSC10761,0.07,0.03
Unr (Upstream of N-ras),DRSC22959,-0.22,0.56
Cpr57A + Obp57d,DRSC06708,-0.4,0.23

Further entries follow.
Depletion of Girdin [DRSC08292] resulted in: replicate 1, z-score of dpERK with insulin -0.23; replicate 2, z-score of dpERK with insulin -0.17.
With knock-down of CG13375 [DRSC18621] the results were replicate 1, z-score of dpERK with insulin 0.1; replicate 2, z-score of dpERK with insulin 0.
Cpr64Ad (Cuticular protein 64Ad) [DRSC08284] scored replicate 1, z-score of dpERK with insulin 0.06; replicate 2, z-score of dpERK with insulin 0.01.
With knock-down of sky (skywalker) [DRSC02383] the results were replicate 1, z-score of dpERK with insulin 0.64; replicate 2, z-score of dpERK with insulin -0.01.
Knock-down of sky (skywalker) [DRSC03214] gave: replicate 1, z-score of dpERK with insulin 2.04; replicate 2, z-score of dpERK with insulin 1.14.
Knock-down of sky (skywalker) [DRSC03215] came out at: replicate 1, z-score of dpERK with insulin 0.61; replicate 2, z-score of dpERK with insulin -0.25.
Depletion of CG17190 [DRSC15184] resulted in: replicate 1, z-score of dpERK with insulin -0.01; replicate 2, z-score of dpERK with insulin 0.
For CG33337 [DRSC13632], the values are replicate 1, z-score of dpERK with insulin 0.24; replicate 2, z-score of dpERK with insulin 0.56.
After knock-down of CG33253 [DRSC19547], the screen gave replicate 1, z-score of dpERK with insulin 0.81; replicate 2, z-score of dpERK with insulin -0.1.
Silencing of CG33253 [DRSC20053] gave: replicate 1, z-score of dpERK with insulin 0.65; replicate 2, z-score of dpERK with insulin 0.05.
For Cpr67B (Cuticular protein 67B) [DRSC10373], the values are replicate 1, z-score of dpERK with insulin -0.19; replicate 2, z-score of dpERK with insulin -0.17.
Cyfip (Cytoplasmic FMR1 interacting protein) [DRSC15679] scored replicate 1, z-score of dpERK with insulin -0.26; replicate 2, z-score of dpERK with insulin -0.52.
For rho (rhomboid) [DRSC08734] the deposit lists replicate 1, z-score of dpERK with insulin 3.54; replicate 2, z-score of dpERK with insulin 0.69.
With knock-down of robls54B (roadblock similar 54B) [DRSC05660] the results were replicate 1, z-score of dpERK with insulin 0.7; replicate 2, z-score of dpERK with insulin 0.03.
pip (pipe) [DRSC11382] gave replicate 1, z-score of dpERK with insulin -1.26; replicate 2, z-score of dpERK with insulin -0.33.
CG42399 [DRSC00322] showed replicate 1, z-score of dpERK with insulin 0.99; replicate 2, z-score of dpERK with insulin -0.16.
Against CG42399 [DRSC00661] the deposit lists replicate 1, z-score of dpERK with insulin 0.19; replicate 2, z-score of dpERK with insulin -0.11.
For msk (moleskin) [DRSC11340], the entry reads replicate 1, z-score of dpERK with insulin 1.68; replicate 2, z-score of dpERK with insulin 0.66.
For mAcon2 (Mitochondrial aconitase 2) [DRSC15629], the entry reads replicate 1, z-score of dpERK with insulin 0.3; replicate 2, z-score of dpERK with insulin 0.41.
CG11248 [DRSC11644] gave replicate 1, z-score of dpERK with insulin -0.19; replicate 2, z-score of dpERK with insulin -0.26.
For seq (sequoia) [DRSC06863] the deposit lists replicate 1, z-score of dpERK with insulin 0.42; replicate 2, z-score of dpERK with insulin 0.78.
Knock-down of CG14797 [DRSC17955] resulted in: replicate 1, z-score of dpERK with insulin 0.75; replicate 2, z-score of dpERK with insulin 1.48.
Knock-down of Pdss2 (Decaprenyl diphosphate synthase subunit 2) [DRSC11625] came out at: replicate 1, z-score of dpERK with insulin 0.21; replicate 2, z-score of dpERK with insulin 0.16.
Against ATPCL (ATP citrate lyase) [DRSC05913] the deposit lists replicate 1, z-score of dpERK with insulin 1.06; replicate 2, z-score of dpERK with insulin 0.45.
After knock-down of CG5662 [DRSC19957], the screen gave replicate 1, z-score of dpERK with insulin -0.2; replicate 2, z-score of dpERK with insulin 0.25.
Against CG43138 [DRSC17527], the entry reads replicate 1, z-score of dpERK with insulin -0.21; replicate 2, z-score of dpERK with insulin 0.1.
